# Test results: patent US11939399B2, “Synthetic peptide sp4 and use thereof” (TAIAN CITY QIHANG BIOTECHNOLOGY CO., priority 2018, dated 2024)
# Entries after “also recorded” stand apart in the source; their conditions may differ. At least one peptide structure holds a part that was inferred or is arguable (an end, a ring closure or a residue). Ends that are not written are not given here.
# Legend:
# [1] = test system: subcutaneous human osteosarcoma MG-63 xenograft tumor; experiment: In vivo anti-tumour effect evaluation of sp4 administered via tail veins; parameters: species or system BALB/c nude mice; details: for day of treatment on which drug appears effective (T/C (%)≤40% and P<0.05): tail vein, daily
# [2] = test system: human promyelocytic leukemia cell line HL-60; experiment: Detection of HL-60 cell cycle by flow cytometry (PI); type: cell-based; details: for DipG2 (%): NC 14.29; for DipS (%) / Total S-Phase (%): NC 44.29
# [3] = test system: PD-L1; experiment: Immunofluorescence test on PD-L1 in xenograft tumor tissues; type: in vivo, human; details: MG-63 xenograft tumor tissues in nude mice, immunofluorescence positive index
# [4] = test system: subcutaneous human osteosarcoma MG-63 xenograft tumor; experiment: Detection of human osteosarcoma MG-63 cell cycle in nude mice; type: in vivo
# Procedure: (B) Detection of Human Osteosarcoma MG-63 Cell Cycle in Nude Mice
# 1. Preparation of Single Cell Suspension of Solid Tumor
# 1.1 Tumor block was washed 3 times with PBS buffer and cut into small blocks (1-2 mm), then washed 3 times with PBS, and transferred into a 50 ml centrifuge tube.
# 1.2 0.25% trypsin solution was added to digested at 37′C for 20-40 min, and gently shaken once every 5 min, to separate cells. 1.3 2 to 5 ml of serum-containing medium was added to terminate the trypsin digestion.
# 1.4 The suspension was stood for 2-3 min, and transferred to a new centrifuge tube, and filtered with a 200-mesh nylon mesh twice.
# 1.5 The filtered suspension was centrifuged at 1000 rpm for 5 min, and removed the supernatant.
# 1.6 5 ml of PBS buffer was added to centrifuge again, and removed the supernatant.
# 1.7 1 to 2 ml of culture solution was added according to the amount of cells, and the cells were counted for standby.
# 2. Detection of Cell Cycle
# 1) The cell culture solution was collected into a centrifuge tube for standby. Cells were digested with trypsin until the cells could be gently blown down with a pipette or pipette tip, then the collected cell culture solution was added and centrifuged at about 1000 g for 3-5 minutes to precipitate cells. The supernatant was removed, and 1 ml of ice-bath pre-chilled PBS was added to re-suspend the cells and transferred to a 1.5 ml centrifuge tube. The cells were centrifuged and precipitated again, the supernatant was removed, the bottom of the centrifuge tube was gently stricken to disperse cells properly.
# 2) Cell fixation: 1 ml of ice-bath pre-cooled 70% ethanol was added to gently blow and mix well, and fixed at 4° C. for 2 hours, centrifuged at 1000 g for 3-5 minutes to were precipitate the cells. The supernatant was removed and approximately 1 ml of ice-bath pre-cooled PBS was added to resuspend the cells. The cells were centrifuged and precipitated again, and the bottom of the centrifuge tube was gently stricken to disperse cells properly.
# 3) Preparation of propidium iodide staining solution: appropriate amount of propidium iodide staining solution was prepared according to the number of samples to be tested. Note: The prepared propidium iodide staining solution could be stored at 4° C. for a short period of time and should be used on the same day.
# 4) Staining: 0.5 ml of propidium iodide staining solution was added to each tube of cell samples, slowly and fully resuspended the cell precipitate and incubated at 37° C. in the dark for 30 minutes, and subsequently stored at 4° C. or in an ice bath protected from light. After staining, flow cytometry should be completed within 24 hours.
# 5) Flow cytometry detection and analysis: the red fluorescence was detected by a flow cytometer at the excitation wavelength of 488 nm, and the light scattering was detected also. Cell DNA content and light scattering analyses were carried out by analysis software.
# [5] = test system: HL-60 (human acute myeloid leukemia) cells; experiment: Induced differentiation experiment, HE staining (suspension cells); type: cell-based; details: for Mature cells (%): control 40.1; for Immature cells (%): control 59.9
# [6] = test system: CD47; experiment: Immunofluorescence test on CD47 in xenograft tumor tissues; type: in vivo, human; details: MG-63 xenograft tumor tissues in nude mice, immunofluorescence positive index
# [7] = test system: telomerase; experiment: Detection of telomerase activity of MG-63 cells (QPCR); type: cell-based, human; details: in vitro, dose-dependent
# [8] = test system: telomerase; experiment: Detection of telomerase activity in solid tumors (QPCR); type: in vivo, human; details: tumor samples from nude mice at end of efficacy experiment, vs model group; dose-dependent
# [9] = test system: HL-60 cell line; experiment: Nitroblue tetrazolium (NBT) reduction reaction; type: cell-based, human; details: NS control group 6.0
# [10] = MG-63 xenograft in nude mice, P>0.05
sequence,measurement,setting,value
FLFSLIPSAISG [sp4],relative tumor proliferation rate T/C (%),"[1]; MG-63 xenograft in nude mice, tail vein injection, dose group not stated",10.27±1.87%
same,relative tumor proliferation rate T/C (%) of sp4 group compared with positive control Paclitaxel,[1]; [10],not significantly different; also recorded: no significant difference
same,tumor growth curves of sp4 compared with positive control Paclitaxel,[1]; [10],no significant difference
same,day of treatment on which drug appears effective (T/C (%)≤40% and P<0.05),[1]; high dose (16 mg/kgBW),7 days
same,day of treatment on which drug appears effective (T/C (%)≤40% and P<0.05),[1]; low dose (4 mg/kgBW),19 days
same,day of treatment on which drug appears effective (T/C (%)≤40% and P<0.05),[1]; medium dose (8 mg/kgBW),15 days
same,effect on volume and weight of subcutaneous MG-63 xenograft tumor,"[1]; nude mice, dose-effect and time-effect relationship",significant inhibitory effect
same,effect on HL-60 cell cycle,"[2]; 25-200 μM vs control group, dose-effect relationship",G1 phase arrest
same,DipG2 (%),[2]; sp4 25 μM,14.85%
same,DipG1 (%),"[2]; sp4 25 μM, NC 41.43",62.32%
same,DipS (%),[2]; sp4 25 μM,22.82%
same,Total S-Phase (%),[2]; sp4 25 μM,22.82%
same,DipG2 (%),[2]; sp4 50 μM,14.23%
same,DipG1 (%),"[2]; sp4 50 μM, NC 41.43",64.76%
same,DipS (%),[2]; sp4 50 μM,21.01%
same,Total S-Phase (%),[2]; sp4 50 μM,21.01%
same,DipG2 (%),[2]; sp4 100 μM,6.03%
same,DipG1 (%),"[2]; sp4 100 μM, NC 41.43",65.79%
same,DipS (%),[2]; sp4 100 μM,28.17%
same,Total S-Phase (%),[2]; sp4 100 μM,28.17%
same,DipG2 (%),[2]; sp4 200 μM,9.69%
same,DipS (%),[2]; sp4 200 μM,23.76%
same,Total S-Phase (%),[2]; sp4 200 μM,23.76%
same,DipG1 (%),"[2]; sp4 200 μM, NC (HL-60 only) 41.43",66.54%
same,expression of PD-L1 vs model group,[3],significantly decreased
same,cell cycle effect in subcutaneous human osteosarcoma xenograft tumor models,[4]; sp4 high-dose and low-dose groups,significant G1 phase arrest
same,S and G2/M phases vs model group,[4]; sp4 high-dose group,decreases
same,G0/G1 phase vs model group,"[4]; sp4 high-dose group, P<0.01",increases significantly
same,G2/M phase vs model group,"[4]; sp4 high-dose group, P<0.01",decreases significantly
same,S and G2/M phases vs model group,[4]; sp4 low-dose group,increases
same,G0/G1 phase vs model group,"[4]; sp4 low-dose group, P<0.01",decreases significantly
same,S and G2/M phases vs model group,[4]; sp4 moderate dose group,decreases
same,G0/G1 phase vs model group,"[4]; sp4 moderate dose group, P<0.01",increases significantly
same,Mature cells (%),[5]; SP4 25 μM,43.3%
same,Immature cells (%),[5]; SP4 25 μM,56.7%
same,Mature cells (%),[5]; SP4 50 μM,46.3%
same,Immature cells (%),[5]; SP4 50 μM,53.7%
same,Mature cells (%),[5]; SP4 100 μM,57.0%
same,Immature cells (%),[5]; SP4 100 μM,43.0%
same,Mature cells (%),[5]; SP4 200 μM,58.6%
same,Immature cells (%),[5]; SP4 200 μM,41.4%
same,expression of CD47 vs model group,[6],significantly reduced
same,effect on telomerase activity of tumor cell line MG-63,[7],strong inhibitory effect
same,effect on telomerase activity of MG-63 in vivo tumor tissues,[8],strong inhibitory effect; also recorded: significant difference
same,NBT positive cell rate (%),[9]; sp4 25 μM,70.0%
same,NBT positive cell rate (%),[9]; sp4 50 μM,73.0%
same,NBT positive cell rate (%),[9]; sp4 100 μM,75.0%
same,NBT positive cell rate (%),[9]; sp4 200 μM,80.5%
